From the supplement of paper PMC12889115
The list shows a part of the results. Values are raw readings; no control value is given beside them.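 Primary screen: polymyxin B was added at a level permeabilizing Salmonella outer membranes while sparing inner membranes. DMSO wells, both with and without polymyxin B, established maximum growth. Plate-to-plate variation meant each plate was ranked on its own, and the lowest-OD600 compounds were selected as hits.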

System: Salmonella enterica serovar Typhimurium SL1344
Test: bacterial growth OD600 after 18 h with compound and polymyxin B; higher = more bacterial growth (less inhibition)
Conditions: 50 µM, Mueller-Hinton broth

| Structure (SMILES) | bacterial growth OD600 (polymyxin B 1 µg/mL) | bacterial growth OD600 (polymyxin B 0.75 µg/mL) |
| --- | --- | --- |
| CCCCn1c(CN(C)CCOc2ccccc2)cnc1S(=O)(=O)CC | 1 |  |
| COc1ccc(C(=O)N2CCCC(Nc3ccc(F)cc3)C2)c(OC)c1OC (centres undefined) | 1.12 |  |
| CCn1ccnc1CNC(=O)c1cc(OC)ccc1OC1CCN(C(=O)C2CC2)CC1 | 0.862 |  |
| COC(=O)CCC(=O)N1CCCC(Nc2ccccc2)C1 (centres undefined) | 1.17 |  |
| O=C(c1ccsc1)N1CCc2[nH]nc(-c3ccccc3)c2C1 |  | 0.737 |
| O=C(NCCn1cccn1)C1CCC(=O)N(CCc2cccc(F)c2)C1 (centres undefined) | 0.893 |  |
| CN(C)C(=O)CN1CCN(C(=O)CC(c2ccccc2)c2ccccc2F)CC1 (centres undefined) |  | 0.713 |
| COc1ccc(CNC2CCCc3nc(N4CCC(CO)CC4)ncc32)cc1C (centres undefined) |  | 0.776 |
| Cc1ccccc1C1(CC(=O)N2CCCC2c2ccc(F)cc2)CC(=O)N(Cc2cccnc2)C1=O (centres undefined) |  | 0.004 |

Record cards, as listed above.
Cc1ccccc1C1(CC(=O)N2CCCC2c2ccc(F)cc2)CC(=O)N(Cc2cccnc2)C1=O (centres undefined) is listed with bacterial growth OD600 (polymyxin B 0.75 µg/mL): 0.004
O=C(NCCn1cccn1)C1CCC(=O)N(CCc2cccc(F)c2)C1 (centres undefined) is listed with bacterial growth OD600 (polymyxin B 1 µg/mL): 0.893
